In publication doi:10.1101/2020.09.29.319483:
These are yes or no findings as the source states them, for the method shown. In cells and extracts the contact can be indirect. Some entries that bind do so weakly or less than the wild type.

By UniProt entry, the sequences of proteins in these tests, tags left out. Residues count along the entry.
UniProt P43220, residues 24-463: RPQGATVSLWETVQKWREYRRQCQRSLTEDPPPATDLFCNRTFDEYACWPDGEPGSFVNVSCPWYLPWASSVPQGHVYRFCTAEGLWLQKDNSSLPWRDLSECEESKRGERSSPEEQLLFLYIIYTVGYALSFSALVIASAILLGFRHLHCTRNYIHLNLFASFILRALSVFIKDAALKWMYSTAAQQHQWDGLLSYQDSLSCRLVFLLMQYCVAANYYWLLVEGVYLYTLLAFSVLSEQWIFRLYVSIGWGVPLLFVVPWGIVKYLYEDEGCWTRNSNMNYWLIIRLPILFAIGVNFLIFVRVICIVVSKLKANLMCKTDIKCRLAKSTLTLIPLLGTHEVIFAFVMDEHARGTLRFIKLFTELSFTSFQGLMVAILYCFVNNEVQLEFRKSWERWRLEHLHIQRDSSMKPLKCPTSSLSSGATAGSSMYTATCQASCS
UniProt P32121: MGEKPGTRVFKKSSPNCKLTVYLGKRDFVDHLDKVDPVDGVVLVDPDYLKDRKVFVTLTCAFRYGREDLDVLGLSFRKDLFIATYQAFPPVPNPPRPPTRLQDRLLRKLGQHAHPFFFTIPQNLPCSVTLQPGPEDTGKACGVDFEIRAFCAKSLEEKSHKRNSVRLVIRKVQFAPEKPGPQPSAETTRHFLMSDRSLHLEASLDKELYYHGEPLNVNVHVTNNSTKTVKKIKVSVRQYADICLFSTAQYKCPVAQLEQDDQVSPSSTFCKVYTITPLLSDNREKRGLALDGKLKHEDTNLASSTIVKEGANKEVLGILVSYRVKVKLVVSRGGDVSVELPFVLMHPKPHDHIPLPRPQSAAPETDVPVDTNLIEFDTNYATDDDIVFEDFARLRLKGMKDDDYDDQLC
UniProt P49407: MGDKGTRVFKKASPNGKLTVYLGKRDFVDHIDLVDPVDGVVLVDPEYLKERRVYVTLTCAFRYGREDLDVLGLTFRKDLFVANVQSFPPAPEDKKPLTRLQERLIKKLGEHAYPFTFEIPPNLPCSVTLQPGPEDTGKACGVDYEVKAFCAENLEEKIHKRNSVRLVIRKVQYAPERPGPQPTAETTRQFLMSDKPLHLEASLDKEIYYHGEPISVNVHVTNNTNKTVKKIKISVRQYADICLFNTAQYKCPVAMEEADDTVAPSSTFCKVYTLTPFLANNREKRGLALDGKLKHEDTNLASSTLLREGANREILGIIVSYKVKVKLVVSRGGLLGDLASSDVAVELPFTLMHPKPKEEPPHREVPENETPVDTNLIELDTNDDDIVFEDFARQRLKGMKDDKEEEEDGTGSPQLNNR

Target: human glucagon-like peptide-1 receptor as used in the β-arrestin recruitment (PathHunter) assays (human) (UniProt P43220)
Test: split reporter

Row | binding | Substance
1 | binds | β-arrestin-2 (from UniProt P32121 1-409)
2 | binds | β-arrestin-1 (from UniProt P49407 1-418)
